Results deposited as PubChem BioAssay AID1671195 (Yale University, 2021)
Purpose: 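Knockdowns that increase or decrease uptake of fluorescent LDL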 (primary screen). Cells: human Huh7 hepatoma cells. Reagent: siRNA pool against human genes, 18 nM. Duration: about 2 to 2.5 days of knockdown, then 8 h LDL uptake. Treatment: DiI-labelled LDL at 30 µg/ml for 8 h, in lipoprotein-deficient serum medium. Measured: 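Per-cell DiI-LDL intensity by automated imaging; well means scaled to the plate median and given as a robust z-score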. Reading the numbers: robust z-score: higher = more LDL uptake after knockdown. Rule for the call: 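Active when two or more replicates show a robust z-score above 2 or below -2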.
This is one part, drawn at random, of about 22,000 deposited reagents. Of all reagents, about 1,510 (6.9%) are marked active. 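Active includes knockdowns raising or lowering LDL uptake; positive z-scores mean more uptake, negative mean less.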

gene | PubChem SID | robust z-score, replicate 1 | robust z-score, replicate 2 | robust z-score, replicate 3 | activity call
CHRM2 (cholinergic receptor muscarinic 2) | SID442904079 | -1.9 | -1.43 | -1.12 | inactive
KCNK6 (potassium two pore domain channel subfamily K member 6) | SID442902635 | -1.22 | -1.17 | -0.962 | inactive
MOB3C (MOB kinase activator 3C) | SID442883664 | 1.75 | 2.73 | 2.99 | active
LINC03006 (long independently transcribed non-coding RNA 3006) | SID442895981 | -0.152 | -0.535 | 0.00984 | inactive
LINC01913 (long independently transcribed non-coding RNA 1913) | SID442890161 | 0.425 | 0.541 | 0.399 | inactive
LOC388170 (retired record) | SID442904655 | -1.88 | -1.64 | -1.83 | inactive
ID3 (inhibitor of DNA binding 3) | SID442901073 | -0.878 | -0.562 | -1.1 | inactive
HLX (H2.0 like homeobox) | SID442891147 | 0.175 | 0.795 | 0.00353 | inactive
HHAT (hedgehog acyltransferase) | SID442893786 | -0.0365 | -0.114 | 0.182 | inactive
EML3 (EMAP like 3) | SID442895657 | -0.285 | 0.105 | -0.394 | inactive
FOXL2 (forkhead box L2) | SID442887544 | 1.33 | 0.944 | 0.404 | inactive
LOC339819 (retired record) | SID442899445 | -0.76 | -0.53 | -0.573 | inactive
PSMC2 (proteasome 26S subunit, ATPase 2) | SID442897703 | -0.142 | -0.333 | -0.77 | inactive
SYNCRIP (synaptotagmin binding cytoplasmic RNA interacting protein) | SID442889671 | 0.228 | 0.9 | 0.448 | inactive
MRAP (melanocortin 2 receptor accessory protein) | SID442884674 | 3.26 | 1.22 | 1.54 | inactive
KATNAL1 (katanin catalytic subunit A1 like 1) | SID442892015 | 0.497 | 0.0522 | 0.108 | inactive
KIF3C (kinesin family member 3C) | SID442891847 | 1.16 | 0.29 | -0.737 | inactive
GLTP (glycolipid transfer protein) | SID442895313 | -1.04 | -0.13 | 0.699 | inactive
QDPR (quinoid dihydropteridine reductase) | SID442887135 | 1.32 | -0.0131 | 1.63 | inactive
TEDC1 (tubulin epsilon and delta complex 1) | SID442888940 | 0.777 | 0.668 | 0.465 | inactive

Part of the list above in another layout:
gene,PubChem SID,"robust z-score, replicate 1","robust z-score, replicate 2","robust z-score, replicate 3",activity call
KIF3C (kinesin family member 3C),SID442891847,1.16,0.29,-0.737,inactive
GLTP (glycolipid transfer protein),SID442895313,-1.04,-0.13,0.699,inactive
QDPR (quinoid dihydropteridine reductase),SID442887135,1.32,-0.0131,1.63,inactive
TEDC1 (tubulin epsilon and delta complex 1),SID442888940,0.777,0.668,0.465,inactive

Further entries follow.
gene | PubChem SID | robust z-score, replicate 1 | robust z-score, replicate 2 | robust z-score, replicate 3 | activity call
IDH3B | SID442886838 | 1.06 | 0.744 | 1.35 | inactive
REV1 (REV1 DNA directed polymerase) | SID442892420 | -0.0374 | 0.254 | 0.293 | inactive
KAT6A (lysine acetyltransferase 6A) | SID442897283 | -0.595 | -0.786 | 0.276 | inactive
NEIL3 (nei like DNA glycosylase 3) | SID442897140 | -0.601 | -0.231 | -0.221 | inactive
RNF148 (ring finger protein 148) | SID442889358 | 0.96 | 0.515 | 0.242 | inactive
LOC440276 (retired record) | SID442888637 | 1.05 | 0.0412 | 0.973 | inactive
OTX1 (orthodenticle homeobox 1) | SID442896994 | -0.439 | -0.864 | 0.298 | inactive
CLEC4E (C-type lectin domain family 4 member E) | SID442904315 | -1.08 | -0.963 | -2.69 | inactive
CREB1 (cAMP responsive element binding protein 1) | SID442896636 | -0.339 | 0.0232 | -0.569 | inactive
TMEM238L (transmembrane protein 238 like) | SID442898305 | -0.573 | -0.253 | -0.626 | inactive
GNG5 (G protein subunit gamma 5) | SID442898753 | -0.69 | -0.493 | -0.419 | inactive
APOBEC1 (apolipoprotein B mRNA editing enzyme catalytic subunit 1) | SID442883793 | 2.26 | 2.18 | 2.51 | active
PTPRT (protein tyrosine phosphatase receptor type T) | SID442885791 | 1.6 | 1.29 | 1.21 | inactive
MRPL34 (mitochondrial ribosomal protein L34) | SID442898466 | -0.38 | -0.418 | -0.707 | inactive
VMO1 (vitelline membrane outer layer 1 homolog) | SID442899046 | -0.582 | -0.649 | -0.481 | inactive
CTRC (chymotrypsin C) | SID442884250 | 0.334 | -2.29 | -2.27 | active
LOC401721 (retired record) | SID442900538 | -0.973 | -0.744 | -0.601 | inactive
FOXI3 (forkhead box I3) | SID442894219 | 0.144 | -0.187 | -0.0771 | inactive
PCLAF (PCNA clamp associated factor) | SID442890081 | 1.07 | -0.157 | 0.482 | inactive
SELENOP (selenoprotein P) | SID442898175 | 0.225 | -0.497 | -1.14 | inactive
DMBX1 (diencephalon/mesencephalon homeobox 1) | SID442898690 | -0.727 | -0.00721 | -0.846 | inactive
UBAP2 (ubiquitin associated protein 2) | SID442887968 | 1.92 | -0.578 | 1.07 | inactive
ZNF774 (zinc finger protein 774) | SID442901579 | -0.868 | -0.945 | -0.952 | inactive
PUS7 (pseudouridine synthase 7) | SID442888193 | 1.06 | 0.19 | 1.05 | inactive
HSPA8P11 (heat shock protein family A (Hsp70) member 8 pseudogene 11) | SID442893979 | -0.0875 | -0.187 | 0.24 | inactive
OR5AS1 (olfactory receptor family 5 subfamily AS member 1) | SID442888145 | 0.965 | 0.591 | 0.772 | inactive
